Experimental data as given in PubChem BioAssay AID540317 (National Center for Advancing Translational Sciences (NCATS), 2011).
What follows is the remainder of the data, with few or none of the hits. Results filed as inconclusive are left out. Activity calls are given as the source filed them. Calls come from the whole dose curve; as a rule, active = well fitted inhibition curve with a large enough effect; inconclusive = small, poorly fitted or top-dose-only effect; inactive = no such curve, though single readings can be large or run the other way.

The chains behind the UniProt entries cited, without tags or fusion partners.
UniProt P83916, whole entry, looked up: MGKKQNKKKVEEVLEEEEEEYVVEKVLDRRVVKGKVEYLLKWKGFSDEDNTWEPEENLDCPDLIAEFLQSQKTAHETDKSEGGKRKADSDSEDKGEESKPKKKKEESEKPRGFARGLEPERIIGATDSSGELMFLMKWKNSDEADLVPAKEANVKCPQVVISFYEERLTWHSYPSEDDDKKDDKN

biological target: Chromobox protein homolog 1 (Homo sapiens) (UniProt P83916); test: HTS for Inhibitors of HP1-beta Chromodomain Interactions with Methylated Histone Tails; settings: AlphaScreen HP1-beta / biotin-H3K9me3 peptide binding; at 114 µM (top of the series); note: nearly all actives have a fitted effect of over 70% in size
Description: As our understanding of epigenetics expands, it is becoming clear that players in this field are potential targets for drug development. This area of epigenetic therapy has established applications for the treatment of cancer and neurological diseases. We have been involved in this field for a number of years and have performed high-throughput screens to identify the first small molecule inhibitors of protein methyltransferases. These methyltransferases target multiple substrates, and thus regulate many arms of an epigenetic pathway. The methylation of different substrates often generates docking sites for effector proteins that harbor binding domains (chromo, tudor, PHD, MBT and ANK repeats). It has been proposed that the binding sites generated for different proteins by these post-translational modifcations mediate downstream effects on chromatin. Consistent with this theory, di- and tri-methylation of histone H3K9 facilitates the binding of heterochromatin protein HP1. The HP1 protein harbors a chromodomain that is responsible for the methyl-dependent interaction between HP1 and lysine 9 of histone H3. HP1 was first described in flies as a heterochromatin associated protein that can regulate gene silencing. It harbors a chromodomain that binds H3K9me3. In addition, it harbors a chromoshadow domain that interacts with a large number of proteins that are involved in heterochromatin formation and gene repression. There are three highly related HP1 isoforms. All three variants are associated with pericentric heterochromatin and it is not clear whether they have specific or redundant functions. MPP8 is also involved in the repression of gene in euchromatic regions (unpublished data) and like HP1 its chromodomain binds H3K9me3. […] Low-affinity protein-protein interactions (Kd in the single- to double-digit micromolar range) such as those discussed here have been very difficult to assay by traditional techniques such as fluorescence polarization or fluorescence resonance energy transfer. […]

Activity change, negative = inhibition, inactive:
CS(=O)(=O)Nc1cccc2[nH]ncc12 42.5%
O=c1ccc2ccc(OCc3ccccc3)cc2o1 40.5%
Cc1cc(=O)oc2cc(OCc3ccccc3)ccc12 114%
